Patent US9284543B2, “Neutral active soluble truncated PH20 polypeptides and uses thereof” (Halozyme, Inc., priority 2008, dated 2016)

System: CHO-S cells
Assay: Western blot analysis of PH20 expression in media and cells after transient expression
Type: cell-based, Chinese Hamster
Details: band at approximately 66 kDa
Outline: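 CHO-S cells were transiently transfected with mutant PH20-HZ24 plasmids using GeneJuice and expressed for 48-72 h at 37 °C, 5% CO2. Media and cells were harvested separately, with PI-PLC treatment used to release GPI-anchored protein. Non-reduced samples were blotted with rabbit anti-PH20 (0.5 μg/mL), and a band near 66 kDa was scored as PH20.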

Molecule	Protein Expression
SPAM1-LFLI: C-terminally truncated human PH20, precursor 502 aa (SEQ ID NO:47), mature 467 aa (SEQ ID NO:99) (protein, listed as Homo sapiens, HuPH20 precursor 1-502; Mature HuPH20 36-502) chain 1: MGVLKFKHIFFRSFVKSSGVSQIVFTFLLIPCCLTLNFRAPPVIPNVPFLWAWNAPSEFCLGKFDEPLDMSLFSFIGSPRINATGQGVTIFYVDRLGYYPYIDSITGVTVNGGIPQKISLQDHLDKAKKDITFYMPVDNLGMAVIDWEEWRPTWARNWKPKDVYKNRSIELVQQQNVQLSLTEATEKAKQEFEKAGKDFLVETIKLGKLLRPNHLWGYYLFPDCYNHHYKKPGYNGSCFNVEIKRNDDLSWLWNESTALYPSIYLNTQQSPVAATLYVRNRVREAIRVSKIPDAKSPLPVFAYTRIVFTDQVLKFLSQDELVYTFGETVALGASGIVIWGTLSIMRSMKSCLLLDNYMETILNPYIINVTLAAKMCSQVLCQEQGVCIRKNWNSSDYLHLNPDNFAIQLEKGGKFTVRGKPTLEDLEQFSEKFYCSCYSTLSCKEKADVKDTDAVDVCIADGVCIDAFLKPPMETEEPQIFYNASPSTLSATMFIVSILFLI chain 2: LNFRAPPVIPNVPFLWAWNAPSEFCLGKFDEPLDMSLFSFIGSPRINATGQGVTIFYVDRLGYYPYIDSITGVTVNGGIPQKISLQDHLDKAKKDITFYMPVDNLGMAVIDWEEWRPTWARNWKPKDVYKNRSIELVQQQNVQLSLTEATEKAKQEFEKAGKDFLVETIKLGKLLRPNHLWGYYLFPDCYNHHYKKPGYNGSCFNVEIKRNDDLSWLWNESTALYPSIYLNTQQSPVAATLYVRNRVREAIRVSKIPDAKSPLPVFAYTRIVFTDQVLKFLSQDELVYTFGETVALGASGIVIWGTLSIMRSMKSCLLLDNYMETILNPYIINVTLAAKMCSQVLCQEQGVCIRKNWNSSDYLHLNPDNFAIQLEKGGKFTVRGKPTLEDLEQFSEKFYCSCYSTLSCKEKADVKDTDAVDVCIADGVCIDAFLKPPMETEEPQIFYNASPSTLSATMFIVSILFLI	YES
SPAM1-FIVS: C-terminally truncated human PH20, precursor 497 aa (SEQ ID NO:8), mature 462 aa (SEQ ID NO:60) (protein, listed as Homo sapiens, HuPH20 precursor 1-497; esHuPH20 36-497) chain 1: MGVLKFKHIFFRSFVKSSGVSQIVFTFLLIPCCLTLNFRAPPVIPNVPFLWAWNAPSEFCLGKFDEPLDMSLFSFIGSPRINATGQGVTIFYVDRLGYYPYIDSITGVTVNGGIPQKISLQDHLDKAKKDITFYMPVDNLGMAVIDWEEWRPTWARNWKPKDVYKNRSIELVQQQNVQLSLTEATEKAKQEFEKAGKDFLVETIKLGKLLRPNHLWGYYLFPDCYNHHYKKPGYNGSCFNVEIKRNDDLSWLWNESTALYPSIYLNTQQSPVAATLYVRNRVREAIRVSKIPDAKSPLPVFAYTRIVFTDQVLKFLSQDELVYTFGETVALGASGIVIWGTLSIMRSMKSCLLLDNYMETILNPYIINVTLAAKMCSQVLCQEQGVCIRKNWNSSDYLHLNPDNFAIQLEKGGKFTVRGKPTLEDLEQFSEKFYCSCYSTLSCKEKADVKDTDAVDVCIADGVCIDAFLKPPMETEEPQIFYNASPSTLSATMFIVS chain 2: LNFRAPPVIPNVPFLWAWNAPSEFCLGKFDEPLDMSLFSFIGSPRINATGQGVTIFYVDRLGYYPYIDSITGVTVNGGIPQKISLQDHLDKAKKDITFYMPVDNLGMAVIDWEEWRPTWARNWKPKDVYKNRSIELVQQQNVQLSLTEATEKAKQEFEKAGKDFLVETIKLGKLLRPNHLWGYYLFPDCYNHHYKKPGYNGSCFNVEIKRNDDLSWLWNESTALYPSIYLNTQQSPVAATLYVRNRVREAIRVSKIPDAKSPLPVFAYTRIVFTDQVLKFLSQDELVYTFGETVALGASGIVIWGTLSIMRSMKSCLLLDNYMETILNPYIINVTLAAKMCSQVLCQEQGVCIRKNWNSSDYLHLNPDNFAIQLEKGGKFTVRGKPTLEDLEQFSEKFYCSCYSTLSCKEKADVKDTDAVDVCIADGVCIDAFLKPPMETEEPQIFYNASPSTLSATMFIVS	YES
